For at least one compound, name, drawing or mass did not settle the structure.
Tested on: Zelllinien des kleinzelligen Bronchialkarzinoms H69, SW2, OH1, OH3 und H82
Test: XTT cell proliferation test, single agents Indometacin or IBMX
Format: cell-based
Conditions: single agent
Source text: Vor Beginn der Versuche zur Zellproliferation wurde zunächst für jede Zelllinie eine Eichkurve erstellt, um die optimale Zellzahl pro ml für die nachfolgenden Versuchsreihen zu ermitteln. Dafür wurde das Zellproliferationskit XTT (Roche, Penzberg, Deutschland) verwendet. Hierbei wird durch ein in allen vitalen Zellen vorhandenes Enzym das gelbe Tetrazoliumsalz XTT zum orangen Salz Formazan reduziert. Somit stellt die Extinktion der jeweiligen Zellkulturprobe ein Maß für die Anzahl der vitalen Zellen dar.
Die Zelllinien wurden in sieben verschiedenen Konzentrationen zwischen 10^4 und 10^7 Zellen pro ml in Mikrotiterplatten mit 96 Vertiefungen ausgesät. In jede Vertiefung wurde zunächst 10 µl PBS (pH 7,4) vorgelegt und dann 90 µl der Zellsuspension mit der jeweiligen Zellzahl pro ml zugegeben. Für jede Zelllinie wurden sechs parallele Ansätze hergestellt. Nach 72 Stunden Inkubation unter Standardbedingungen wurden 50 µl XTT Labeling Mixture pro Vertiefung zugegeben. Nach sechs Stunden wurde die Absorption bei 450 nm in einem Dynatech MR 3.13 Mikroelisa Reader gemessen und anhand der erzielten Werte Eichkurven erstellt. Figur 1 zeigt die Eichkurven für die Zelllinien H69, SW2, OH1, OH3 und H82OH1-Zellen. Die Zellzahlen wurden so gewählt, dass sich die Zellen bei ungehindertem Wachstum in der exponentiellen Wachstumsphase befanden. […]

For `COc1ccc2c(c1)c(CC(=O)O)c(C)n2C(=O)c1ccc(Cl)cc1` [Indometacin, 2-[1-(4-Chlorbenzoyl)-5-methoxy-2-methyl-1H-indol-3-yl]essigsäure], the “Wirkung auf die verschiedenen Zellen des kleinzelligen Bronchialkarzinoms” value was “antiproliferative Wirkung”.
